Binding data for 1 molecule are collected here from article PMC5962530.

No constants are given. Whether binding was seen depends on the method and setting. Binding seen in cells or lysates may run through a third protein. Some entries that bind do so weakly or less than the wild type.

Assay [1] addresses T1, biotin-URP (biotinylated unrelated peptide).
T1 sequence (peptide, biotinylated (position not stated); cyclo-peptide): CNKSPSGNC
Briefly: pull-down; called co-immunoprecipitation by the paper: biotin-GX1 or biotin-URP on Dynabeads M-280 Streptavidin, co-HUVEC lysate, eluates on SDS-PAGE, blot with TGM2 antibody; only the target purified.

The target of assay [2] is T2, biotin-GX1 (biotinylated peptide GX1).
T2 sequence (peptide, biotinylated (position not stated); cyclic peptide): CGNSNPKSC
The description is as above.

B1: transglutaminase-2 (TGM2) (protein, UniProt P21980 1-687)
chain: MAEELVLERCDLELETNGRDHHTADLCREKLVVRRGQPFWLTLHFEGRNYEASVDSLTFSVVTGPAPSQEAGTKARFPLRDAVEEGDWTATVVDQQDCTLSLQLTTPANAPIGLYRLSLEASTGYQGSSFVLGHFILLFNAWCPADAVYLDSEEERQEYVLTQQGFIYQGSAKFIKNIPWNFGQFEDGILDICLILLDVNPKFLKNAGRDCSRRSSPVYVGRVVSGMVNCNDDQGVLLGRWDNNYGDGVSPMSWIGSVDILRRWKNHGCQRVKYGQCWVFAAVACTVLRCLGIPTRVVTNYNSAHDQNSNLLIEYFRNEFGEIQGDKSEMIWNFHCWVESWMTRPDLQPGYEGWQALDPTPQEKSEGTYCCGPVPVRAIKEGDLSTKYDAPFVFAEVNADVVDWIQQDDGSVHKSINRSLIVGLKISTKSVGRDEREDITHTYKYPEGSSEEREAFTRANHLNKLAEKEETGMAMRIRVGQSMNMGSDFDVFAHITNNTAEEYVCRLLLCARTVSYNGILGPECGTKYLLNLNLEPFSEKSVPLCILYEKYRDCLTESNLIKVRALLVEPVINSYLLAERDLYLENPEIKIRILGEPKQKRKLVAEVSLQNPLPVALEGCTFTVEGAGLTEEQKTVEIPDPVEAGEEVKVRMDLLPLHMGLHKLVVNFESDKLKAVKGFRNVIIGPA
For the molecule B1, the figures for the binding result in assay [1] and in assay [2] were “no binding” and “binds”, respectively.
